No constants are given. Whether binding was seen depends on the method and setting. In cells and extracts the contact can be indirect.
Biological target: phosphorylated mediator complex subunit 1 (MED1, phospho T1457), endogenous in clinical prostate specimens (human (endogenous in clinical prostate tumor specimens)) (UniProt Q15648)
Assay: condition: only in benign prostate tissues or muscles; proximity ligation; as a1 (Duolink brightfield kit, Ventana autostainer), on benign prostate tissues or muscles

Chains of the proteins cited; added tags and fusions are not shown.
UniProt Q15648: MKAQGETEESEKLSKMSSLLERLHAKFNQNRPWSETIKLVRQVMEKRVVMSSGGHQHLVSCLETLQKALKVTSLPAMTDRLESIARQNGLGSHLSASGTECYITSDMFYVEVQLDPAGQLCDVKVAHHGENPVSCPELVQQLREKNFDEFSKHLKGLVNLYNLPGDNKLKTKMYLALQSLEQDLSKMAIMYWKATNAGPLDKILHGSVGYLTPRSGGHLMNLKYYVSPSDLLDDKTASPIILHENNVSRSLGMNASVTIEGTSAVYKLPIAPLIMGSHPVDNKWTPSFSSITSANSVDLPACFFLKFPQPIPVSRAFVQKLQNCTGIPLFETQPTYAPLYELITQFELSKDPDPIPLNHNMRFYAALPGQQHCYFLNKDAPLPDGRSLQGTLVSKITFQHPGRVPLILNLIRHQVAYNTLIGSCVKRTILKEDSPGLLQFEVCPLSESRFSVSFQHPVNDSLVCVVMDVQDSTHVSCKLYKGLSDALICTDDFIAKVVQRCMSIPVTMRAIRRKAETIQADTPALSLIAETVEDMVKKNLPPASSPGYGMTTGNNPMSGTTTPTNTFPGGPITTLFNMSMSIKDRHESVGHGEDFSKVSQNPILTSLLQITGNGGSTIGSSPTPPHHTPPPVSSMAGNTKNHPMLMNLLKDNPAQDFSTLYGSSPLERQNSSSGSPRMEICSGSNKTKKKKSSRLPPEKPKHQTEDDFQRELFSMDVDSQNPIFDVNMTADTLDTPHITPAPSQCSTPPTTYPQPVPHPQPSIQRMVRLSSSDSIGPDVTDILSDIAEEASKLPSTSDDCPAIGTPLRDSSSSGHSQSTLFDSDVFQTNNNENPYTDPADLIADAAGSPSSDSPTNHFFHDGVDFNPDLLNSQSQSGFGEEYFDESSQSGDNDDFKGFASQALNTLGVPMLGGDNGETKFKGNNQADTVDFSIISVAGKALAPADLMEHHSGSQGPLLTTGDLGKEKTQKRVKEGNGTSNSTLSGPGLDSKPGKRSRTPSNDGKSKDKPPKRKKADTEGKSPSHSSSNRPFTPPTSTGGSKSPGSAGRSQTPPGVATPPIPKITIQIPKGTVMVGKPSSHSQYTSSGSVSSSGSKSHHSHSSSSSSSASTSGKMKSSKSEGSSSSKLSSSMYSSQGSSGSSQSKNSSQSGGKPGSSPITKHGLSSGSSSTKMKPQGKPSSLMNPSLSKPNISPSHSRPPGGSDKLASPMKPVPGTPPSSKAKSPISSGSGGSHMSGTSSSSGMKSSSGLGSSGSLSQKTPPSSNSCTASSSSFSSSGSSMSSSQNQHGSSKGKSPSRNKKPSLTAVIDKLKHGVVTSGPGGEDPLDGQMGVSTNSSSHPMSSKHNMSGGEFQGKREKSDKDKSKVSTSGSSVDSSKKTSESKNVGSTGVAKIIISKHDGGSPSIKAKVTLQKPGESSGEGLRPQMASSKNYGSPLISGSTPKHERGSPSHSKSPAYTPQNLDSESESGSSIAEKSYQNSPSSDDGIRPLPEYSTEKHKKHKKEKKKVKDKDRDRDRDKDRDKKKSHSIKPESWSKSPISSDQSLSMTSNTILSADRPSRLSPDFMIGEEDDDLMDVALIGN
UniProt P10275: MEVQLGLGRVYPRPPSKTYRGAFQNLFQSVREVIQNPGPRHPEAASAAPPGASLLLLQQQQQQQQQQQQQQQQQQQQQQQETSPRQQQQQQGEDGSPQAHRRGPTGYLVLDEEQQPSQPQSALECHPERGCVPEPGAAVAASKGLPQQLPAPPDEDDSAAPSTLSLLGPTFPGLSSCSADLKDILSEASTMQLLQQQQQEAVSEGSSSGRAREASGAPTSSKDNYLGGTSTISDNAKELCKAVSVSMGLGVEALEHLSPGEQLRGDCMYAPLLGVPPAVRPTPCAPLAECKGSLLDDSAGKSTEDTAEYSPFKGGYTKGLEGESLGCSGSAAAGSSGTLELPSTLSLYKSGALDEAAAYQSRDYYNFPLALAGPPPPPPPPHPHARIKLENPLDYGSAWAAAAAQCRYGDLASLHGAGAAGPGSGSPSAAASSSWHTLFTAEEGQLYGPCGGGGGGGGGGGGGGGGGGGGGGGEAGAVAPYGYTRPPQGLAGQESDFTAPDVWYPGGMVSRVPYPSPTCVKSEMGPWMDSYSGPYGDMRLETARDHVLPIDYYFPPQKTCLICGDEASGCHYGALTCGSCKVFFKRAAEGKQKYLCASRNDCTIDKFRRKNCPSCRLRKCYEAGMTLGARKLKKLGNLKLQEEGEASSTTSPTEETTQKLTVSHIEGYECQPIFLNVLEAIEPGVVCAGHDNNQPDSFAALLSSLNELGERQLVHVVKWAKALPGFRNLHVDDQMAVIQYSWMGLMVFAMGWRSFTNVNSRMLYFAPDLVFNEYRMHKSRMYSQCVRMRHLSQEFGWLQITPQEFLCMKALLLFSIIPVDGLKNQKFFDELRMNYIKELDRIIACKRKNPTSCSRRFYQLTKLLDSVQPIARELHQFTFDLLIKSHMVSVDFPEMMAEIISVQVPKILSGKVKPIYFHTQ

Substance: androgen receptor (AR), endogenous in clinical prostate specimens (from UniProt P10275 1-920)
- binding: no binding
